# According to the supplement of paper PMC10849652:
# Sequences of proteins named here, by UniProt entry; tags and fusion partners are left off. A change or cut given only in a name is not applied to a line headed by its entry.
# UniProt A5YKK6, whole entry, looked up: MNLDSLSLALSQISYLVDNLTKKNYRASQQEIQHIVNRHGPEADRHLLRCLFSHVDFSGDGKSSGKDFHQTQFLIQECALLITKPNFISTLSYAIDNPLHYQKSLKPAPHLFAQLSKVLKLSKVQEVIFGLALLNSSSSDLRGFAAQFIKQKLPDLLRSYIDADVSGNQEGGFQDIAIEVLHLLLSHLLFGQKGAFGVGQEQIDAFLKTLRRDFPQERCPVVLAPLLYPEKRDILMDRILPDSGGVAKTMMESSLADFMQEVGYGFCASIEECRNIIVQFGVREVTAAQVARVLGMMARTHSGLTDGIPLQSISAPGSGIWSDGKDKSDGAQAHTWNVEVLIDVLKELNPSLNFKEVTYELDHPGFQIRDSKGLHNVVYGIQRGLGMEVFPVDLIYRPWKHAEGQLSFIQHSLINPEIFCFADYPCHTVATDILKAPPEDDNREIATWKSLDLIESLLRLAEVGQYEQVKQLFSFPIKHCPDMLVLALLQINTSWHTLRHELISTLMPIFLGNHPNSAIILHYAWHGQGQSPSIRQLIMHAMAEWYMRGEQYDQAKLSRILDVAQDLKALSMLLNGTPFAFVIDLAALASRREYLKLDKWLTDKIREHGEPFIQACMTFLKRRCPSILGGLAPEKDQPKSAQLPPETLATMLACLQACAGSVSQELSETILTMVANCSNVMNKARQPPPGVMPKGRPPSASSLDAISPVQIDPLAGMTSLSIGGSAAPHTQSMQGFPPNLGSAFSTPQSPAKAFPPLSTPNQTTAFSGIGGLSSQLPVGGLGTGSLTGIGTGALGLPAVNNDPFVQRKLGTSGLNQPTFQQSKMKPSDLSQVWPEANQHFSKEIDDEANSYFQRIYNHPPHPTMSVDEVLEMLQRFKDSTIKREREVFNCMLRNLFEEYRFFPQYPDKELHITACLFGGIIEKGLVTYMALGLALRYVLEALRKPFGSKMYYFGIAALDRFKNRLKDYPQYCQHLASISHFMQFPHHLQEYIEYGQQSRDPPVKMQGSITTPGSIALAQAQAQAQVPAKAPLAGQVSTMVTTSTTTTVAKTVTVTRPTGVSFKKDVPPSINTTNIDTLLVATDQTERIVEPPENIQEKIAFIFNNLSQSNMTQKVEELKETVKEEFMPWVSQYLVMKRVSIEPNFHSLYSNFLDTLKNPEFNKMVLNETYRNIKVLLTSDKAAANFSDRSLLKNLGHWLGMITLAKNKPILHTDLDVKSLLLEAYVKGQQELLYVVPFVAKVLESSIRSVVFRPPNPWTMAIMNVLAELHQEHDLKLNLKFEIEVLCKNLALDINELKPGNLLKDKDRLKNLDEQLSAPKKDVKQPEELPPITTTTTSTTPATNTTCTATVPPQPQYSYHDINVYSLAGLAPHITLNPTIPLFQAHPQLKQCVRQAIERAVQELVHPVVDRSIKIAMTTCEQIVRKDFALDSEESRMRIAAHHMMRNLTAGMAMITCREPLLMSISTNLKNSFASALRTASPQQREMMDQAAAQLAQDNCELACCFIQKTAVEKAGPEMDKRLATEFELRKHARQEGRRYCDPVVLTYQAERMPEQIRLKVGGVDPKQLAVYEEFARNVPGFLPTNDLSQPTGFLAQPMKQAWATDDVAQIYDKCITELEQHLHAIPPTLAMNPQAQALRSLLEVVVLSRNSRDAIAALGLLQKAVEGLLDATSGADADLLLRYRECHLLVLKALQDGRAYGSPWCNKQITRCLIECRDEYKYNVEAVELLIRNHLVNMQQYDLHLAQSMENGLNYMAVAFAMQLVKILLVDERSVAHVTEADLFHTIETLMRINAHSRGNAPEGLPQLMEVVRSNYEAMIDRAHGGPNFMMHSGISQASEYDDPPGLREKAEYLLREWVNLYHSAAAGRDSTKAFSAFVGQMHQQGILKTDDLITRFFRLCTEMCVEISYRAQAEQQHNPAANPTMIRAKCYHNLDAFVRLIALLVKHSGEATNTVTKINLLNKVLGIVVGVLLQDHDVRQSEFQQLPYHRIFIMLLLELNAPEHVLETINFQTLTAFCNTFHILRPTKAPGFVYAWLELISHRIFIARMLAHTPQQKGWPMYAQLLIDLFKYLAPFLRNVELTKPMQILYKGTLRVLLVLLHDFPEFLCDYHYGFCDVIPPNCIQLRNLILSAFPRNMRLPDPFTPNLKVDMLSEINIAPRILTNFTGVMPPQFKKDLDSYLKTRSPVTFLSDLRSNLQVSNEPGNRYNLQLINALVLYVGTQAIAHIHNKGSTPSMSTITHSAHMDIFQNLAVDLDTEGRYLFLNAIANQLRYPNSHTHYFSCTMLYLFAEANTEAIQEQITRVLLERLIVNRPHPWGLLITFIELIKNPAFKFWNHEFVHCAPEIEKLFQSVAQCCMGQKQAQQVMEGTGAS
# UniProt A4D0V7: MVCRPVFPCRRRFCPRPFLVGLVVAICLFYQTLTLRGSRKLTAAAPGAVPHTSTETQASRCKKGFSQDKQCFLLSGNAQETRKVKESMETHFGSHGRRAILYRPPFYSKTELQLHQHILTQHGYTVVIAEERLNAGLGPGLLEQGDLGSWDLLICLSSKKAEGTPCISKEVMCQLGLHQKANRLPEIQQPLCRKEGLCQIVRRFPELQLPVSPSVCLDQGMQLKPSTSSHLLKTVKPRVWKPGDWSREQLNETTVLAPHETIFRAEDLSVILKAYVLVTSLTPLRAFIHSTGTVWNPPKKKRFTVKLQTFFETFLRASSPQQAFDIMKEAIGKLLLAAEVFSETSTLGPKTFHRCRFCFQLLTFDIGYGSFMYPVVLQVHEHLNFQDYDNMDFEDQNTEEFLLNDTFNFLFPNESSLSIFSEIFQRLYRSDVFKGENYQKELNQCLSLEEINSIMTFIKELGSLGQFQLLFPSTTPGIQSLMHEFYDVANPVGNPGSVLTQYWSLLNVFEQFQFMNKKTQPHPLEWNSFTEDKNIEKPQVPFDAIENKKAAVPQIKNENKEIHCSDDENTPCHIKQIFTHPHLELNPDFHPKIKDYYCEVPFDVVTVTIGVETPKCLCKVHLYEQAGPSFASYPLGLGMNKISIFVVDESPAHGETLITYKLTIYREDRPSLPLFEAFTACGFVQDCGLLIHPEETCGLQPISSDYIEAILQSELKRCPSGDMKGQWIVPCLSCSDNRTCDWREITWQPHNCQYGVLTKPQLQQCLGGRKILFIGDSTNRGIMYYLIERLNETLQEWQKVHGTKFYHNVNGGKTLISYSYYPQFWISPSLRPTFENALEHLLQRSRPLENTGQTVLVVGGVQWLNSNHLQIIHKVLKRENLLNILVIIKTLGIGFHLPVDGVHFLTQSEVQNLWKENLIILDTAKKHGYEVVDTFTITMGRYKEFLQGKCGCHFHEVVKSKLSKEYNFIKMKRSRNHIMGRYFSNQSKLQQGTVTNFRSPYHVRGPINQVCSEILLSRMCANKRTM
# UniProt Q9H3G5: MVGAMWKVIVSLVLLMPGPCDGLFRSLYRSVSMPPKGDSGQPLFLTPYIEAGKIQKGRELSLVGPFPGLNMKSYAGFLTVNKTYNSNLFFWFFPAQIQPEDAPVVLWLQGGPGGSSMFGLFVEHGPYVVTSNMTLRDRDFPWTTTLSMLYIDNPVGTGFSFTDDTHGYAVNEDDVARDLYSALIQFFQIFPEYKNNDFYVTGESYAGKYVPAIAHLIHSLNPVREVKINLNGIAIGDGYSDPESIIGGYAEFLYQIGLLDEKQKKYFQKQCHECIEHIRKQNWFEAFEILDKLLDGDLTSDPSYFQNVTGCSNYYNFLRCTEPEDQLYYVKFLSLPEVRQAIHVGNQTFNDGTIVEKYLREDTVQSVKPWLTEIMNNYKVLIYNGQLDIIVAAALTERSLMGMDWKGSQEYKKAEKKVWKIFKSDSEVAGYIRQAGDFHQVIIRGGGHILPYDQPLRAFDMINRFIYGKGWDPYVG
# UniProt Q9NX08, whole entry, looked up: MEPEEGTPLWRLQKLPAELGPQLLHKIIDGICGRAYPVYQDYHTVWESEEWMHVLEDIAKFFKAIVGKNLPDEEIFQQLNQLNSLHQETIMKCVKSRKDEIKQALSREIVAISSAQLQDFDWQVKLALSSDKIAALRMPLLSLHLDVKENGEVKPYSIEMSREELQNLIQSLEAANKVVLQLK
# UniProt Q86YQ8: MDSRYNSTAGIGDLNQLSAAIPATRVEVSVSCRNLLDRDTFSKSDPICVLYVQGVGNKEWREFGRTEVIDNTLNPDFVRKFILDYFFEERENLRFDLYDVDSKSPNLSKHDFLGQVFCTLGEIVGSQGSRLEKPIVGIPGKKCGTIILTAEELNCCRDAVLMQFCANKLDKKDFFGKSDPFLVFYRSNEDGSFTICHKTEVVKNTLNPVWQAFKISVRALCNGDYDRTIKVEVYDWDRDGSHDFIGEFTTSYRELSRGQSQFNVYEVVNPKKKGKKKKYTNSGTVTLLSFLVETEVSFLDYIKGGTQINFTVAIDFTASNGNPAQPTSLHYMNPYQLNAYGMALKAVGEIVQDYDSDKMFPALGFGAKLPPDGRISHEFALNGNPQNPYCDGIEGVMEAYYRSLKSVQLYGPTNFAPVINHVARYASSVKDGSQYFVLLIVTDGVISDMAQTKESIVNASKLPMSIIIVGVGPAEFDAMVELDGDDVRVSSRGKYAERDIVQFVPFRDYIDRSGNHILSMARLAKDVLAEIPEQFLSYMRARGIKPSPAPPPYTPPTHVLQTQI
# UniProt Q7L5N1: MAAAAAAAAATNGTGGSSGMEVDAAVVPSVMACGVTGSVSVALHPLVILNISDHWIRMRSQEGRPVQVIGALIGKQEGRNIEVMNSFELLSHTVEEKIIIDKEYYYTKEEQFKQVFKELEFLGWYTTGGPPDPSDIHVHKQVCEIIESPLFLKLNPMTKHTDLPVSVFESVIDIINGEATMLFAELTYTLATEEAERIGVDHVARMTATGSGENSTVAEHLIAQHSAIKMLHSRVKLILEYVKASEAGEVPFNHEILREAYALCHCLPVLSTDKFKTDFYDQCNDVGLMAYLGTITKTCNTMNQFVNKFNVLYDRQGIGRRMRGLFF
# UniProt Q9Y6G5, whole entry, looked up: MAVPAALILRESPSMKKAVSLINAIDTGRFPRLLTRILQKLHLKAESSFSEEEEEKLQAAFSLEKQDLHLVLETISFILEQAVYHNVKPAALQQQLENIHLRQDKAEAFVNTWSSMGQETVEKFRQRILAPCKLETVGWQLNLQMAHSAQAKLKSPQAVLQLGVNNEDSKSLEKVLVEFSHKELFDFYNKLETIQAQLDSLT
# UniProt Q99807: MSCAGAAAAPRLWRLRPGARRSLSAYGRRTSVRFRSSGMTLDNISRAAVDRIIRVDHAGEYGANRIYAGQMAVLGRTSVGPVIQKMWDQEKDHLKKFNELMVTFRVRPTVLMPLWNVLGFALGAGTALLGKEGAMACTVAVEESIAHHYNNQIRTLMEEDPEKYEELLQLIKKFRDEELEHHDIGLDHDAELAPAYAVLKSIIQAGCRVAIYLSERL
# UniProt P53621: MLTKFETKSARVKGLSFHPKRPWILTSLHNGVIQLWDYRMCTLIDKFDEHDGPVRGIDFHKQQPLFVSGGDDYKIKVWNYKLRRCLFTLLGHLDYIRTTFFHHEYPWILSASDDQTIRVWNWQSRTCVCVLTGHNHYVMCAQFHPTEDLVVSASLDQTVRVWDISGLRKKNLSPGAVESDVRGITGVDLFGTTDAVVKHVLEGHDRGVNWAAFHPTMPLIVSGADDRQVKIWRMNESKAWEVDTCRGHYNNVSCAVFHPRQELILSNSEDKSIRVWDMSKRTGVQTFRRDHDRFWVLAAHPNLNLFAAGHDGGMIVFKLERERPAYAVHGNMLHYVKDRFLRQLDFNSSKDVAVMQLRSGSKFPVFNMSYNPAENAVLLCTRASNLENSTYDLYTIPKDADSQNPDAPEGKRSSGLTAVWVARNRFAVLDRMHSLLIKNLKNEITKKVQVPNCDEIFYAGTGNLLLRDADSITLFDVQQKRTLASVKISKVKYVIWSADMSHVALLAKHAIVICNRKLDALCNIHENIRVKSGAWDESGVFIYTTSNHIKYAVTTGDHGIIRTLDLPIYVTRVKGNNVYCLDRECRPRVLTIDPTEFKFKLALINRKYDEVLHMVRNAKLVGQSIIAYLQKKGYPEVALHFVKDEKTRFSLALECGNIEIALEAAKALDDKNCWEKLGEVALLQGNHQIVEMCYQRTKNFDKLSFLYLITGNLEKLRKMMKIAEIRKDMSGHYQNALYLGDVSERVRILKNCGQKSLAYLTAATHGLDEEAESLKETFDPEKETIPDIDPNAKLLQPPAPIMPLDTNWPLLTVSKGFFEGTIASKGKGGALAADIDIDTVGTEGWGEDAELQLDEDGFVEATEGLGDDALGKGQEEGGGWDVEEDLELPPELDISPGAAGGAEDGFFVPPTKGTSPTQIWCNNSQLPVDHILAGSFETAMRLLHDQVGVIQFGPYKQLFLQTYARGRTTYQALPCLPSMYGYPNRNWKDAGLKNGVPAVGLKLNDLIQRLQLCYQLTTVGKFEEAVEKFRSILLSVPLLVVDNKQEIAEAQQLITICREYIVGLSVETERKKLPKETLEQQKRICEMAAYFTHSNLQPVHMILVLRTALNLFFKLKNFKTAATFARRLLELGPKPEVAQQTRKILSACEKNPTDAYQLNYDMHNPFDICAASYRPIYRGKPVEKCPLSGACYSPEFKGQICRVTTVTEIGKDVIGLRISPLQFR
# Some of the results follow.
# Legend:
# Experiment in all cases: log2 fold change, soluble protein after heating vs DMSO (PISA); higher = thermal stabilisation; K562 lysate, 10 uM; active = over 0.2 and 3.5 SD of the protein, either way, in both replicates (recomputed)
# lapatinib = compound: CS(=O)(=O)CCNCc1ccc(-c2ccc3ncnc(Nc4ccc(OCc5cccc(F)c5)c(Cl)c4)c3c2)o1 [lapatinib]
# How it was run: (§1)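 K562 pellets were dounce-homogenised in PBS pH 7.4 containing 1 mM MgCl2, and the crude extract, at 1 mg/mL protein, was exposed to 10 μM compound for 30 min. Aliquots were heated for 3 min across 48°C-58°C, pooled, brought to 0.5% NP-40 at 4°C and spun at 21,000xg for 90 min, with the supernatant taken as soluble protein. TMTpro 16plex LC-MS/MS with equalised channel sums quantified that protein. Values are log-two fold changes in thermal stability relative to solvent controls, taken from duplicates.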
# pictilisib = compound: CS(=O)(=O)N1CCN(Cc2cc3nc(-c4cccc5[nH]ncc45)nc(N4CCOCC4)c3s2)CC1 [pictilisib]
# How it was run: as §1
# crizotinib = compound: C[C@@H](Oc1cc(-c2cnn(C3CCNCC3)c2)cnc1N)c1c(Cl)ccc(F)c1Cl [crizotinib]
# How it was run: as §1
# [1] = compound: C[C@H](C1=CC=C(C=C1)C(=O)NC2=C3C=CNC3=NC=C2)N
# How it was run: as §1
# duvelisib = compound: C[C@H](Nc1ncnc2nc[nH]c12)c1cc2cccc(Cl)c2c(=O)n1-c1ccccc1 [duvelisib]
# How it was run: as §1
# gandotinib = compound: Cc1cc(Nc2cc(CN3CCOCC3)c3nc(C)c(Cc4ccc(Cl)cc4F)n3n2)n[nH]1 [gandotinib]
# How it was run: as §1
# tozasertib = compound: Cc1cc(Nc2cc(N3CCN(C)CC3)nc(Sc3ccc(NC(=O)C4CC4)cc3)n2)n[nH]1 [tozasertib]
# How it was run: as §1
# doramapimod = compound: Cc1ccc(-n2nc(C(C)(C)C)cc2NC(=O)Nc2ccc(OCCN3CCOCC3)c3ccccc23)cc1 [doramapimod]
# How it was run: as §1
# bafetinib = compound: Cc1ccc(NC(=O)c2ccc(CN3CC[C@H](N(C)C)C3)c(C(F)(F)F)c2)cc1Nc1nccc(-c2cncnc2)n1 [bafetinib]
# How it was run: as §1
# [2] = compound: Cc1cccc(CC(=O)N2CCc3c2ccc(-c2cn(C)c4ncnc(N)c24)c3F)n1
# How it was run: as §1
# dasatinib = compound: Cc1nc(Nc2ncc(C(=O)Nc3c(C)cccc3Cl)s2)cc(N2CCN(CCO)CC2)n1 [dasatinib]
# How it was run: as §1
# [3] = compound: Cn1cc(-c2ccc3c(c2)CCN3C(=O)Cc2cccc(C(F)(F)F)c2)c2c(N)ncnc21
# How it was run: as §1
# quisinostat = compound: Cn1cc(CNCC2CCN(c3ncc(C(=O)NO)cn3)CC2)c2ccccc21 [quisinostat]
# How it was run: as §1
# [4] = compound: NC(=O)Nc1cc(-c2cccc(F)c2)sc1C(=O)N[C@H]1CCCNC1
# How it was run: as §1
# [5] = compound: NC(=O)c1cnc(N[C@@H]2CCCC[C@@H]2N)nc1Nc1cccc(-n2nccn2)c1
# How it was run: as §1
# [6] = compound: NC1(c2ccc(-c3nc4ccn5c(=O)[nH]nc5c4cc3-c3ccccc3)cc2)CCC1
# How it was run: as §1
# nilotinib = compound: Cc1cn(-c2cc(NC(=O)c3ccc(C)c(Nc4nccc(-c5cccnc5)n4)c3)cc(C(F)(F)F)c2)cn1 [nilotinib]
# How it was run: as §1
# [7] = compound: Cc1nc(Nc2n[nH]c3c2CN(C(=O)N[C@H](CN(C)C)c2ccccc2)C3(C)C)c2sccc2n1
# How it was run: as §1
# [8] = compound: Cc1ncc(-c2ccnc(Nc3ccc(S(C)(=O)=O)cc3)n2)n1C(C)C
# How it was run: as §1
# tipifarnib = compound: Cn1cncc1[C@@](N)(c1ccc(Cl)cc1)c1ccc2c(c1)c(-c1cccc(Cl)c1)cc(=O)n2C [tipifarnib]
# How it was run: as §1
Target,log2 fold change (lapatinib),log2 fold change (pictilisib),log2 fold change (crizotinib),log2 fold change [1],log2 fold change (duvelisib),log2 fold change (gandotinib),log2 fold change (tozasertib),log2 fold change (doramapimod),log2 fold change (bafetinib),log2 fold change [2],log2 fold change (dasatinib),log2 fold change [3],log2 fold change (quisinostat),log2 fold change [4],log2 fold change [5],log2 fold change [6],log2 fold change (nilotinib),log2 fold change [7],log2 fold change [8],log2 fold change (tipifarnib)
CNOT4 isoform 9 (UniProt O95628),inactive: -0.006,inactive: -0.014,inactive: 0.077,active: -1.01,inactive: -0.009,inactive: 0.298,inactive: 0.04,inactive: -0.184,inactive: -0.031,inactive: 0.271,inactive: -0.062,inactive: -0.052,inactive: 0.17,inactive: -0.058,inactive: 0.081,inactive: -0.024,–,–,–,–
COQ8A (UniProt Q8NI60),inactive: 0.004,inactive: 0.025,inactive: 0.106,inactive: -0.078,inactive: -0.095,inactive: 0.126,inactive: 0.023,inactive: -0.059,inactive: 0.041,inactive: -0.042,inactive: 0.394,inactive: -0.05,inactive: 0.082,inactive: 0.051,inactive: 0.348,inactive: 0.004,inactive: 0.091,inactive: -0.013,inactive: -0.211,inactive: 0.032
CNOT1 (UniProt A5YKK6),inactive: -0.013,inactive: -0.011,inactive: -0.01,inactive: -0.04,inactive: -0.002,inactive: -0.045,inactive: -0.021,inactive: 0.013,inactive: -0.029,inactive: 0.05,inactive: -0.036,inactive: 0.005,inactive: -0.012,inactive: 0.01,inactive: 0.02,inactive: 0.011,inactive: 0.004,inactive: 0.009,inactive: 0.006,inactive: -0.008
CPED1 (UniProt A4D0V7),inactive: 0.011,inactive: 0.032,inactive: -0.016,inactive: -0.045,inactive: 0.057,inactive: 0.014,inactive: -0.038,inactive: 0.012,inactive: -0.016,inactive: 0.112,inactive: -0.164,inactive: -0.002,inactive: -0.021,inactive: 0.049,inactive: 0.022,inactive: 0.162,inactive: 0.054,inactive: 0.061,inactive: -0.062,inactive: 0.045
CPVL (UniProt Q9H3G5),inactive: -0.065,inactive: 0.035,inactive: -0.293,inactive: -0.152,inactive: 0.026,inactive: 0.064,–,inactive: 0.153,inactive: 0.072,inactive: 0.116,inactive: -0.277,inactive: -0.092,inactive: -0.413,inactive: -0.085,inactive: 0.046,inactive: 0.054,inactive: -0.021,inactive: 0.088,inactive: -0.015,inactive: -0.068
COMMD8 (UniProt Q9NX08),inactive: 0.061,inactive: -0.138,inactive: -0.02,inactive: 0.019,inactive: -0.041,inactive: -0.178,inactive: -0.091,inactive: -0.028,inactive: -0.143,inactive: -0.079,inactive: -0.109,inactive: -0.015,inactive: 0.038,inactive: -0.066,inactive: -0.034,inactive: 0.018,inactive: 0.034,inactive: 0.107,inactive: 0.079,inactive: 0.037
COL18A1 (UniProt P39060),inactive: -0.017,inactive: -0.046,inactive: 0.054,inactive: -0.007,inactive: -0.012,inactive: -0.032,inactive: -0.06,inactive: 0.04,inactive: -0.016,inactive: -0.017,inactive: 0.024,inactive: -0.043,inactive: 0.031,inactive: -0.043,inactive: 0.024,inactive: 0.019,inactive: 0.008,inactive: 0.001,inactive: -0.084,inactive: -0.031
CPNE8 (UniProt Q86YQ8),inactive: -0.332,inactive: -0.103,inactive: 0.005,inactive: -0.086,inactive: 0.137,inactive: 0.039,–,inactive: -0.021,inactive: 0.048,inactive: 0.014,inactive: 0.111,inactive: 0.12,inactive: -0.083,inactive: 0.078,inactive: 0.061,inactive: 0.102,inactive: -0.137,inactive: 0.01,inactive: -0.007,inactive: 0.011
CRACR2A isoform 2 (UniProt Q9BSW2),inactive: -0.012,inactive: 0.037,inactive: -0.035,inactive: 0.005,inactive: -0.036,inactive: -0.074,inactive: -0.06,inactive: -0.052,inactive: 0.048,inactive: -0.028,inactive: 0.026,inactive: 0.042,inactive: -0.108,inactive: 0.115,inactive: -0.09,inactive: -0.027,inactive: 0.016,inactive: -0.005,inactive: -0.035,inactive: 0.003
COPS6 (UniProt Q7L5N1),inactive: 0.009,inactive: -0.016,inactive: 0.005,inactive: 0.019,inactive: 0.031,inactive: -0.014,inactive: 0.049,inactive: -0.006,inactive: 0.088,inactive: -0.051,inactive: -0.004,inactive: -0.027,inactive: 0.032,inactive: -0.012,inactive: 0.005,inactive: 0.04,inactive: 0.017,inactive: -0.025,inactive: -0.023,inactive: 0.067
COMMD10 (UniProt Q9Y6G5),inactive: 0.008,inactive: -0.03,inactive: 0.053,inactive: 0.031,inactive: 0.013,inactive: -0.073,inactive: 0.003,inactive: 0.043,inactive: 0.008,inactive: -0.06,inactive: 0.007,inactive: -0.034,inactive: 0.049,inactive: -0.032,inactive: -0.046,inactive: -0.02,inactive: -0.032,inactive: -0.018,inactive: 0.021,inactive: 0.02
COX18 (UniProt Q8N8Q8),inactive: -0.012,inactive: -0.016,inactive: -0.057,inactive: -0.071,inactive: 0.038,inactive: -0.016,inactive: -0.021,inactive: -0.022,inactive: -0.093,inactive: 0.052,inactive: -0.015,inactive: -0.049,inactive: -0.031,inactive: 0.003,inactive: -0.002,inactive: -0.05,inactive: -0.007,inactive: 0.01,inactive: 0.016,inactive: -0.029
COMMD6 isoform 2 (UniProt Q7Z4G1),inactive: 0.109,inactive: 0.023,inactive: -0.042,inactive: 0.186,inactive: -0.012,inactive: -0.149,inactive: -0.098,inactive: 0.006,inactive: -0.146,inactive: 0.011,inactive: 0.036,inactive: 0.006,inactive: 0.048,inactive: -0.008,inactive: -0.016,inactive: -0.015,inactive: 0.044,inactive: 0.057,inactive: -0.059,inactive: 0.014
COPZ1 isoform 4 (UniProt P61923),inactive: 0.161,inactive: 0.062,inactive: 0.09,inactive: 0.083,inactive: -0.022,inactive: -0.066,inactive: 0.028,inactive: -0.044,inactive: -0.048,inactive: -0.088,inactive: 0.015,inactive: 0.023,inactive: 0.289,inactive: -0.029,inactive: -0.103,inactive: 0.037,inactive: 0.012,inactive: 0,inactive: 0.088,inactive: 0.002
COQ7 (UniProt Q99807),inactive: -0.007,inactive: -0.008,inactive: -0.116,inactive: 0.013,inactive: 0.108,inactive: -0.072,inactive: 0.018,inactive: 0.04,inactive: 0,inactive: 0.094,inactive: -0.011,inactive: 0.039,inactive: -0.058,inactive: 0.021,inactive: 0.048,inactive: -0.034,inactive: -0.052,inactive: 0.013,inactive: 0.036,inactive: -0.007
COPA isoform 2 (UniProt P53621),inactive: -0.004,inactive: -0.005,inactive: -0.015,inactive: 0.006,inactive: 0.01,inactive: -0.021,inactive: -0.001,inactive: 0.035,inactive: -0.014,inactive: -0.01,inactive: -0.023,inactive: -0.01,inactive: -0.02,inactive: 0.016,inactive: -0.001,inactive: -0.002,inactive: 0.003,inactive: -0.002,inactive: -0.015,inactive: 0.004

# Reformatted with tabs: part of the list above
Target	log2 fold change (lapatinib)	log2 fold change (pictilisib)	log2 fold change (crizotinib)	log2 fold change [1]	log2 fold change (duvelisib)	log2 fold change (gandotinib)	log2 fold change (tozasertib)	log2 fold change (doramapimod)	log2 fold change (bafetinib)	log2 fold change [2]	log2 fold change (dasatinib)	log2 fold change [3]	log2 fold change (quisinostat)	log2 fold change [4]	log2 fold change [5]	log2 fold change [6]	log2 fold change (nilotinib)	log2 fold change [7]	log2 fold change [8]	log2 fold change (tipifarnib)
COL18A1 (UniProt P39060)	inactive: -0.017	inactive: -0.046	inactive: 0.054	inactive: -0.007	inactive: -0.012	inactive: -0.032	inactive: -0.06	inactive: 0.04	inactive: -0.016	inactive: -0.017	inactive: 0.024	inactive: -0.043	inactive: 0.031	inactive: -0.043	inactive: 0.024	inactive: 0.019	inactive: 0.008	inactive: 0.001	inactive: -0.084	inactive: -0.031
COQ7 (UniProt Q99807)	inactive: -0.007	inactive: -0.008	inactive: -0.116	inactive: 0.013	inactive: 0.108	inactive: -0.072	inactive: 0.018	inactive: 0.04	inactive: 0	inactive: 0.094	inactive: -0.011	inactive: 0.039	inactive: -0.058	inactive: 0.021	inactive: 0.048	inactive: -0.034	inactive: -0.052	inactive: 0.013	inactive: 0.036	inactive: -0.007
COPA isoform 2 (UniProt P53621)	inactive: -0.004	inactive: -0.005	inactive: -0.015	inactive: 0.006	inactive: 0.01	inactive: -0.021	inactive: -0.001	inactive: 0.035	inactive: -0.014	inactive: -0.01	inactive: -0.023	inactive: -0.01	inactive: -0.02	inactive: 0.016	inactive: -0.001	inactive: -0.002	inactive: 0.003	inactive: -0.002	inactive: -0.015	inactive: 0.004
